These are yes or no findings as the source states them, for the method shown. In cells and extracts the contact can be indirect. Some entries that bind do so weakly or less than the wild type.
Experiments:
[1] = biological target: p62-SQMT (human (endogenous in MCF7)) (UniProt Q13501); test: co-IP; MCF7 cells (non-targeted and TRIM25 knock-out) cross-linked with formaldehyde, quenched with glycine; p62-SQMT precipitated from 2 mg lysate (50 mM Tris 7.4, 20 mM NaCl, 10 mM MgCl2, 0.5% Igepal CA-630); p300 and TRIM25 by Western blot
GST-tagged LC3A = GST-tagged LC3A (UniProt Q9H492); test: pull-down; purified GST-fused proteins and GST-agarose mixed with lysate (450 μg protein, diluted to 150 mM NaCl) of H1299 cells transfected with TRIM25, overnight at 4°C; TRIM25 by Western blot; only the target purified
GST-tagged GABARAB = GST-tagged GABARAB (UniProt O95166); test: as above
GST-tagged GABA-L2 = GST-tagged GABA-L2 (UniProt P60520); test: as above
GST-tagged LC3C = GST-tagged LC3C (UniProt Q9BXW4); test: as above
HA-tagged p300 = HA-tagged p300 (UniProt Q09472); test: co-IP; HEK293T cells transfected with HA-p300 and TRIM25, lysed in RIPA buffer 48 h after transfection; p300 precipitated from 500 μg lysate, IgG as control; TRIM25 by Western blot

By UniProt entry, the sequences of proteins in these tests, tags left out. Residues count along the entry.
UniProt O95166: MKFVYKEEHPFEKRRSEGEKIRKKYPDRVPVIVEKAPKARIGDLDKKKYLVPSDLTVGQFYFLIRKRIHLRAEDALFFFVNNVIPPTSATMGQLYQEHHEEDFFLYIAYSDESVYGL
UniProt P60520: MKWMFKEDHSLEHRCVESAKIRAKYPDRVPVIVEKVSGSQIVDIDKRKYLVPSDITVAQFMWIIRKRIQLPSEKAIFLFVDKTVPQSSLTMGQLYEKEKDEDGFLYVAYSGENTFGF
UniProt Q9BXW4, residues 1-126: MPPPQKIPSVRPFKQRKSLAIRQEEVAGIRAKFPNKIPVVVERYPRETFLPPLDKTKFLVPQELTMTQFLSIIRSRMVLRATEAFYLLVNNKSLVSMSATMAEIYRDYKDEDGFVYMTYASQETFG
UniProt Q09472: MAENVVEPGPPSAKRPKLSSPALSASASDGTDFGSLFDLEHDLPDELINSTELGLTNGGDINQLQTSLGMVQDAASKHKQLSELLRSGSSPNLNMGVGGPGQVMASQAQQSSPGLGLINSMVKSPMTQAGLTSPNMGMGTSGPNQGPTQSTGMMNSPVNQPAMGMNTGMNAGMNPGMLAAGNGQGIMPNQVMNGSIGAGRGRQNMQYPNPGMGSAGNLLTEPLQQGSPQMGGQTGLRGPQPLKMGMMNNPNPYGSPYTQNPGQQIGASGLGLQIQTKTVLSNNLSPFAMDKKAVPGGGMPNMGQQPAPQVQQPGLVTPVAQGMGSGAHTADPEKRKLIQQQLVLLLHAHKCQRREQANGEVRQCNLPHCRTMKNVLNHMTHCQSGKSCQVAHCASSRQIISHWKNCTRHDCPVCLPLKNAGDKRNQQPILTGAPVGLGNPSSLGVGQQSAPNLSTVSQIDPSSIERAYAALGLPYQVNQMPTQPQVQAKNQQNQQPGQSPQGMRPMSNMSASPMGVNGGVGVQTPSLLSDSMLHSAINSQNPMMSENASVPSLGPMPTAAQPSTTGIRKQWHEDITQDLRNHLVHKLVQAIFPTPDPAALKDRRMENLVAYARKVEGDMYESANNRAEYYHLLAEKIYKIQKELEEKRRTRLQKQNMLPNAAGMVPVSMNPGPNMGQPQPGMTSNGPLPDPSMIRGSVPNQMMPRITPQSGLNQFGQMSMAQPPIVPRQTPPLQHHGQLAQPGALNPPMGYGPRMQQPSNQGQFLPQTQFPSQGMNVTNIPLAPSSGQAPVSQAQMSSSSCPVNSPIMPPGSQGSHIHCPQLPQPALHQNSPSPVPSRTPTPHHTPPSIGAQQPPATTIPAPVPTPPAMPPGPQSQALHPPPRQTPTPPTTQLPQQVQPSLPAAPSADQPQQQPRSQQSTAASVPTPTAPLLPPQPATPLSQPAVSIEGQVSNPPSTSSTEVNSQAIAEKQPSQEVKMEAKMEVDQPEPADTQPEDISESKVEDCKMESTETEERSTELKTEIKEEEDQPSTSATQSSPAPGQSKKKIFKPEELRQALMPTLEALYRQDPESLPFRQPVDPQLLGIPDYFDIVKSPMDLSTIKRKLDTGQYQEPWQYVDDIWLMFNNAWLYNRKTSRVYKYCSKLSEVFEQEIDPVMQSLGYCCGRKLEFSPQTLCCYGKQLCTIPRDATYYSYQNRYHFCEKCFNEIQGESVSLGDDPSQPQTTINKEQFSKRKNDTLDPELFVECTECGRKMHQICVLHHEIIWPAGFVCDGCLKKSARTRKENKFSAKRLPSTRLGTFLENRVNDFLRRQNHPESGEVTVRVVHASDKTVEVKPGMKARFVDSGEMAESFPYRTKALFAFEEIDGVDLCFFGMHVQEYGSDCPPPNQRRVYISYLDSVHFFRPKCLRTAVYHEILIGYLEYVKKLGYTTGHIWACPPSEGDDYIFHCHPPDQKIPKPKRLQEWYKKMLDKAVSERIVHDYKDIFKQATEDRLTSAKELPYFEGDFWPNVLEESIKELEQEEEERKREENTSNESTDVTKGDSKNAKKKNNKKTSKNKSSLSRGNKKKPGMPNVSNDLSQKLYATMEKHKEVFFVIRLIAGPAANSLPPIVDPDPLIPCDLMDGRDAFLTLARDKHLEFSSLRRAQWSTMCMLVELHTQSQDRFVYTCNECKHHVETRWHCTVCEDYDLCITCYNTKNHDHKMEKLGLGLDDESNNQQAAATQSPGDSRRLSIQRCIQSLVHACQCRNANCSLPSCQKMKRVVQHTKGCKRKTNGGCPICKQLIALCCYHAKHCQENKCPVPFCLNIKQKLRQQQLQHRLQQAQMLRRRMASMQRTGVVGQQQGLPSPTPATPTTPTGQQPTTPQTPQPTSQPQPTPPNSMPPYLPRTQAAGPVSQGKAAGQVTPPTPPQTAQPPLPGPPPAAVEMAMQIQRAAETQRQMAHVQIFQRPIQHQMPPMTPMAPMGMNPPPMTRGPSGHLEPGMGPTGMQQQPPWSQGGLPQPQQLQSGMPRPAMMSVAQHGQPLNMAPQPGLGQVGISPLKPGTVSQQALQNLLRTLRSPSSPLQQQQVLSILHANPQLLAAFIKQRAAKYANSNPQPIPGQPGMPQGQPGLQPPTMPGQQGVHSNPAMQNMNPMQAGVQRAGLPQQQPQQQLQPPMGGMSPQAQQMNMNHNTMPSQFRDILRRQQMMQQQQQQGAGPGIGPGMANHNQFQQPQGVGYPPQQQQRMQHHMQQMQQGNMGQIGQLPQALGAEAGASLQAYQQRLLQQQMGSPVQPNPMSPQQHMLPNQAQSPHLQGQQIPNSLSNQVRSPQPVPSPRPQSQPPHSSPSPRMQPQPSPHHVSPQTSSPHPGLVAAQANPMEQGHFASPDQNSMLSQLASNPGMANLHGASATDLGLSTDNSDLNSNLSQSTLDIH

Measured: binding

TRIM25 (from UniProt Q14258 1-630)
binds weakly: [1]
binds: all other assays above

— paper PMC10539465
